# Measurements published in PMC6221140.
# No constants are given. Whether binding was seen depends on the method and setting.
# Molecular target: T1, SpoIID (Clostridium difficile) (UniProt Q18CL6)
# T1 sequence: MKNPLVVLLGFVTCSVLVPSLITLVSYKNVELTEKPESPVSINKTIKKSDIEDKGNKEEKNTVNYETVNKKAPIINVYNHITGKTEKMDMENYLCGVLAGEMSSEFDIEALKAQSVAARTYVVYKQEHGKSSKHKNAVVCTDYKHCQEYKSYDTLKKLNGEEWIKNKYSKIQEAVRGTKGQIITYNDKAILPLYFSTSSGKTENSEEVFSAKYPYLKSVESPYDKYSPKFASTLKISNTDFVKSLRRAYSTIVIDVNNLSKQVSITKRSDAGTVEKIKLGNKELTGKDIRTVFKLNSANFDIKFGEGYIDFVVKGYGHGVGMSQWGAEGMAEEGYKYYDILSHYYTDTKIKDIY
# Test: condition: only SpoIIIAH fused to T18 and SpoIID fused to T25 (the reverse orientation); two-hybrid; BACTH in E. coli BTH101 (cya); full length proteins fused to the C-terminus of T18 (pUT18C) or T25 (pKT25) of CyaA; blue colonies on X-Gal/IPTG plates, 30°C, 24 h, and β-galactosidase activity of liquid cultures in Miller units; biological duplicate
substance,measurement,value
SpoIIIAH (Clostridium difficile),binding,no binding
